Assay results reported in patent US5837684A (Nycomed Imaging AS, priority 1995, dated 1998).

Assay: general procedure: Fmoc solid-phase peptide synthesis; TentaGel resins with a trityl-derived linker (TentaGel S Trt / TentaGel R Trt, Rapp Polymere)
Settings: whole synthesis, λ=215 nm

Substance	final HPLC purity [%]
PEPTIDE1{I.I.T.Y.R.K.G.S.S.T}$$$$V2.0	98
H-TLYYWRASST-OH	97
PEPTIDE1{T.L.Y.Y.W.K.S.S.S.S}$$$$V2.0	99

Strings that start with PEPTIDE1 are HELM notation: dots part the residues, brackets hold end groups and non-standard residues.
